Reference: paper PMC10799895
Results are given in words; binding and its absence hold for the method and conditions named. For some of these results: In cells and extracts the contact can be indirect. Some entries that bind do so weakly or less than the wild type. For some of these results: Tags and fused reporters may be left off the sequences shown.

Protein sequences, listed by entry. Tags and fused reporters are not part of them. Residues count along the entry.
UniProt P56962: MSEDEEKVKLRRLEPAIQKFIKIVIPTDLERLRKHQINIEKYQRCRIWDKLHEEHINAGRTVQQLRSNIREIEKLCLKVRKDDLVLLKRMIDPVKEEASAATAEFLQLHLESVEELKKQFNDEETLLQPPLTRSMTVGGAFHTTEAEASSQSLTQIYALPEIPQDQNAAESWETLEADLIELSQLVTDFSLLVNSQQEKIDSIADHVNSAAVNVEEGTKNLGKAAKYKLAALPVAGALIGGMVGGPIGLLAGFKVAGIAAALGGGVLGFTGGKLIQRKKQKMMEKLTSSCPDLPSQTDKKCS
UniProt Q9BXW4, residues 1-126: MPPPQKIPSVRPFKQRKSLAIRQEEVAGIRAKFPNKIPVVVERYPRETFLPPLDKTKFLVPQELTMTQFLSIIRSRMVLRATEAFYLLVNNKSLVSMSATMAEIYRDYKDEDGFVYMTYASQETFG

Key:
[1] = target: STX17 (construct not shown) (UniProt P56962); experiment: co-IP
STX18-Flag = target: T1, STX18-Flag (UniProt Q9P2W9); experiment: co-IP
T1 sequence: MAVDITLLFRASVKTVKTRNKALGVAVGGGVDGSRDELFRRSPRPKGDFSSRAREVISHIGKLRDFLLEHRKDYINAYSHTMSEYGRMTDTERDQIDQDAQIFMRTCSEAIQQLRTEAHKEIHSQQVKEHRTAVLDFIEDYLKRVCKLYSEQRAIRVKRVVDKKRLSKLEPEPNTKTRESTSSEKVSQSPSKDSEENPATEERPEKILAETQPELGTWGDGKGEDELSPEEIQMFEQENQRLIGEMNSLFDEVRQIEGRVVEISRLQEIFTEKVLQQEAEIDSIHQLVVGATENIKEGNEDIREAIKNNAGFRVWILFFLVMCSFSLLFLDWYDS

GFP-LC3C = GFP-LC3C (UniProt Q9BXW4); experiment: co-IP
GST-LC3C [2] = target: GST-LC3C (UniProt Q9BXW4); experiment: pull-down; GST pull-down of LC3C with ATG14 with or without added STX18 (Fig. 3e); both purified
GST-LC3C [3] = target: GST-LC3C (UniProt Q9BXW4); experiment: pull-down; GST pull-down in vitro: GST-tagged protein on GST beads with the His-tagged protein overnight at 4 °C in 20 mM Tris pH 7.4, 300 mM NaCl, 0.1% NP-40, 1 mM PMSF; three washes; western blot; both purified
Flag-LC3C = Flag-LC3C (UniProt Q9BXW4); experiment: co-IP
endogenous STX18 = target: T2, endogenous STX18 (UniProt Q9P2W9); experiment: co-IP; endogenous IP: precleared lysate, primary antibody overnight, protein A/G plus-agarose 4 h; cells with OA or CQ treatment or Atg7 knock-down
T2 sequence: T1 sequence

Substance: ATG14 (wild type; construct not shown) (from UniProt Q6ZNE5 1-492)
- binding [1]: binds
- binding (STX18-Flag): binds

Substance: ATG14-Flag (from UniProt Q6ZNE5 1-492)
- binding (GFP-LC3C): binds

Substance: ATG14-HA (from UniProt Q6ZNE5 1-492)
- binding (STX18-Flag): binds

Substance: His-sumo-ATG14 (from UniProt Q6ZNE5 1-492)
- binding (GST-LC3C [2]): binds
- binding (GST-LC3C [3]): binds

Substance: M-HA (from UniProt P0DTC5 1-222)
- binding (STX18-Flag): binds

Substance: Myc-ATG14 (from UniProt Q6ZNE5 1-492)
- binding (Flag-LC3C): binds

Substance: endogenous ATG14 (from UniProt Q6ZNE5 1-492)
- binding (endogenous STX18): binds

Substance: endogenous Beclin1 (from UniProt Q14457 1-450)
- binding (STX18-Flag): binds
